Measurements published in article PMC10604759.
No constants are given. Whether binding was seen depends on the method and setting. In cells and extracts the contact can be indirect. Some entries that bind do so weakly or less than the wild type.

Protein sequences, listed by entry. Tags and fused reporters are not part of them.
UniProt O08788: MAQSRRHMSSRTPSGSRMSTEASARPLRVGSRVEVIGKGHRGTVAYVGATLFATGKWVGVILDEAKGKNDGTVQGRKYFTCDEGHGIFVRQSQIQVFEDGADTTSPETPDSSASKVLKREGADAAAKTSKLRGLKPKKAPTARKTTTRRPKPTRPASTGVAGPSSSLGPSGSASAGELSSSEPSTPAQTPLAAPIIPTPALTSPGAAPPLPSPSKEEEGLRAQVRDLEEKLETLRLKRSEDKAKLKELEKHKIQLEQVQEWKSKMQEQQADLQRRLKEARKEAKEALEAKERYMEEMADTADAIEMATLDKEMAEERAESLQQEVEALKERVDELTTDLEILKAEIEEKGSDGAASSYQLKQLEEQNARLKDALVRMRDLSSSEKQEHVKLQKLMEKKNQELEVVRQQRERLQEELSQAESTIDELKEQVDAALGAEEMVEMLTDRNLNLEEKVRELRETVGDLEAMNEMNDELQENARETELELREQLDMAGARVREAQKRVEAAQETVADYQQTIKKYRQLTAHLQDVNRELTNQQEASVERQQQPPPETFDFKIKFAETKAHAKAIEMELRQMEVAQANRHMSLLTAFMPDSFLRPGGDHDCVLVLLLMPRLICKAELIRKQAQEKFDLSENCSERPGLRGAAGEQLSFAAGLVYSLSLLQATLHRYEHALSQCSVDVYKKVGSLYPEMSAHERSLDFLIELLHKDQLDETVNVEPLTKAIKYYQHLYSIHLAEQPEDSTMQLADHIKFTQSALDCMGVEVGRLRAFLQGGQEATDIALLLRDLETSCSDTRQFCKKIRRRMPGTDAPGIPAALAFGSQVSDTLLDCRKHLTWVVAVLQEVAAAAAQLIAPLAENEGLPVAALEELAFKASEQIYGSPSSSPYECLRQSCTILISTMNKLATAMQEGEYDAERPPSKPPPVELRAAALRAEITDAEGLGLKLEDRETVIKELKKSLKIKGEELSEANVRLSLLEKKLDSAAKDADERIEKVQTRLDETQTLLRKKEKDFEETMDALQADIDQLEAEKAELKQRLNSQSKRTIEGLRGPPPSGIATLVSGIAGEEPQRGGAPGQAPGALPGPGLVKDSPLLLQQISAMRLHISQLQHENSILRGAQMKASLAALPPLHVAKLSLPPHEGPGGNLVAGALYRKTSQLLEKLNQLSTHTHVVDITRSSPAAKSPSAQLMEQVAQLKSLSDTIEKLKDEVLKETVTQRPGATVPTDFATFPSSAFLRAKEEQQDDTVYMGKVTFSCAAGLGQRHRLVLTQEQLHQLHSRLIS
UniProt P63168: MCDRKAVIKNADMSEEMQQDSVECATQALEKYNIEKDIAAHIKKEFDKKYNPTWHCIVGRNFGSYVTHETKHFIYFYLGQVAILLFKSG

Biological target: Dynactin1 (mouse (endogenous in AML12)) (UniProt O08788)
Assay: co-IP; endogenous proteins in AML12 cell lysate (cell lysis buffer for CO-IP); 2 ug of the corresponding antibody overnight at 4 °C, magnetic beads 2 h at room temperature, blot; cells treated with or without 5 uM Cd for 6 h

binding: binds
Substance: dynein light chain LC8-type 1 (DYNLL1) (from UniProt P63168 1-89)
